Measured values published in patent US20090048160A1, “Antimicrobial activity of bovine bactericidal/permeability-increasing protein (BPI)-derived peptides against Gram-negative bacterial mastitis isolates” (priority 2007, published 2009).
For some of these results: At least one compound was matched to its structure with a doubt left. Some of these results come from one statement about several compounds together. Ends that are not written are not given here.

How the values were obtained:
[1] = tested on: Staphylococcus aureus; conditions: S. aureus ATCC 29213; NCCLS, 1999; cited from earlier work
[2] = tested on: Escherichia coli; conditions: E. coli ATCC 25922; NCCLS, 1999; cited from earlier work
[3] = tested on: E. coli strain P4; assay: bactericidal activity in serum; assay type: cell-based; conditions: in the presence of serum
Description: Milk and blood samples were aseptically collected from 8 clinically healthy primiparous Holstein cows in mid-lactation with milk somatic cell counts of <150,000 cells/ml. All cows were determined to be free of intramammary pathogens by the absence of growth on blood agar plates spread with milk samples aseptically collected from each animal on 3 different days. For the preparation of whey, milk samples were centrifuged at 44,000×g at 4° C. for 30 min, and the fat layer removed with a spatula. The skim milk was transferred into another sterile tube, centrifuged for an additional 30 min, and the translucent supernatant collected. Milk and whey samples were pasteurized by heating at 63° C. for 30 min. For the preparation of serum, blood was collected from the coccygeal vein into vacutainer tubes containing gel and clot activator (BD Biosciences) for serum separation. The tubes were inverted ×5, the blood allowed to clot for 30 min, and the tubes centrifuged at 1500×g for 15 min. The clear serum supernatants were aseptically transferred into sterile tubes and heat-inactivated by incubating at 56° C. for 30 min. An aliquot of each sample was plated on blood agar plates and samples that were free of detectable bacterial growth were stored at −20° C. […]

| Compound | MIC established quality control range [1] [µg/mL] | MIC established quality control range [2] [µg/mL] | concentrations at which bactericidal activity was demonstrated [3] [µg/mL] |
| --- | --- | --- | --- |
| CN(C)[C@@H]1C(O)=C(C(N)=O)C(=O)[C@@]2(O)C(O)=C3C(=O)c4c(O)cccc4[C@@](C)(O)[C@H]3C[C@@H]12 [Tetracycline, reference compound] | 0.12 to 1 | 0.5 to 2 | – |
| NSQIRPLPDKGLDLSIRDASIKIRGKWKARKNFIK [bBPI65-99] | – | – | > 100 |
| VRIHISGSSLGWLIQLFRKRIESLLQKS [bBPI142-169] | – | – | > 100 |
